We go through 7 substances from article PMC8047447.

Amino acid sequences for entries named in this document (tags omitted). A change or cut given only in a name is not applied to a line headed by its entry. Chains listed by the source or under a name are the forms on record and can include a tag or linker.
UniProt Q9NZ32: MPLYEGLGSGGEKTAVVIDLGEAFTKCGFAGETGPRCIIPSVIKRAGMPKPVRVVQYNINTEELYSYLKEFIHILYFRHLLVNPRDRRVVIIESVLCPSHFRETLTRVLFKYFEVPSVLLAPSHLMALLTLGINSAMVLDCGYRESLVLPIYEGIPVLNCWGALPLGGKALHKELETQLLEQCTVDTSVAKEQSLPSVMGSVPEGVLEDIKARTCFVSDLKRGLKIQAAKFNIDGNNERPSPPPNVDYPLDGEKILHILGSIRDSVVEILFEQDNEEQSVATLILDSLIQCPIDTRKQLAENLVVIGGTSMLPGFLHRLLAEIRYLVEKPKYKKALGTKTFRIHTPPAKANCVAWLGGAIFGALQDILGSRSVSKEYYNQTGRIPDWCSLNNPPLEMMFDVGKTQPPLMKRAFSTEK
p62 (human, isoform A), site 2 mutant (Q9UJW0-1, form named): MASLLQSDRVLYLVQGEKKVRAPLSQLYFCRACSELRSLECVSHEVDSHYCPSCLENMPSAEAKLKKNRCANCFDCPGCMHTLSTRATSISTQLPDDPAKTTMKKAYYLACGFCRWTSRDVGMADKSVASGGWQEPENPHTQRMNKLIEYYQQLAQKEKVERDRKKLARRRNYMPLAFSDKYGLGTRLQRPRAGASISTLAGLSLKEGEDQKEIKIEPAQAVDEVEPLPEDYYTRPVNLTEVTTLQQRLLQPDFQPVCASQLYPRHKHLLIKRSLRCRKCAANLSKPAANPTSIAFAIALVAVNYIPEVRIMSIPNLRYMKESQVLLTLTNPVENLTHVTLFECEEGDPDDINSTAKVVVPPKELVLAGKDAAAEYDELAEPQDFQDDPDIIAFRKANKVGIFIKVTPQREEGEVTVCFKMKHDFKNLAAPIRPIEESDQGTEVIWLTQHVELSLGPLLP

These are yes or no findings as the source states them, for the method shown. Some results given as binding are weak or reduced against the parent protein; the word gives no strength.

For experiment [1], the target named is ZZ-TEV-Arp11 (human) (human) (UniProt Q9NZ32). In words: co-purification (IgG affinity by ZZ-Arp11, then gel filtration); subunits co-expressed in Sf9 cells; clarified lysate on IgG beads, TEV protease, Superose 6 increase; single peak. (In general: SEC sorts molecules by how far they enter the pores of the column.)
For experiment [2], the target named is T1, 2xStrep-Psc-HOOK3 1–522 (UniProt Q86VS8).
T1 sequence: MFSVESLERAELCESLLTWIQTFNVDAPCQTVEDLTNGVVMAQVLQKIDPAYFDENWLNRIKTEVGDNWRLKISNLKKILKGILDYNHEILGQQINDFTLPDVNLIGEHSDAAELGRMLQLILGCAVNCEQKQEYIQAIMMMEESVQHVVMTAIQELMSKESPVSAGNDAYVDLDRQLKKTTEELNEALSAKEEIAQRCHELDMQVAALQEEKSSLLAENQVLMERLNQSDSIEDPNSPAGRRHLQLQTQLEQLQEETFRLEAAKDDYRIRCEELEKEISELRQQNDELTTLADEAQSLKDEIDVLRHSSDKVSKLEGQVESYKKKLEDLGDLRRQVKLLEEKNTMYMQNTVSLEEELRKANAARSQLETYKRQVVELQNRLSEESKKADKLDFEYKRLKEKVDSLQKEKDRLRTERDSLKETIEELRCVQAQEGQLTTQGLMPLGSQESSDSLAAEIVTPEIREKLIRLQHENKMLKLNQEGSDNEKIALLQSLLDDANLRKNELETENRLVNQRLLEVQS
Nature of the experiment: pull-down; 100 pmol Strep-tagged adaptor with 700 pmol pointed end complex, 25 mM HEPES pH 7.2, 100 mM KCl, 1 h at 4°C; Streptactin beads, washed at 150 mM KCl, eluted with desthiobiotin; Arp11 band quantified (SYPRO Ruby); both purified.

For p27 (human) (from UniProt O00399 1-190), the binding result in experiment [1] is “binds”.
Turning to “p25 (human), site 3 mutant (from UniProt Q9BTE1 1-182)”, in experiment [1], the binding result is reported as “binds”.
Same read-out and setting: the result for “p62 (human, isoform A) (from UniProt Q9UJW0-1 1-460)” reads “binds”.
The same measure, in the same setting: to “p62 (human, isoform A), site 2 mutant (from UniProt Q9UJW0-1 1-460)” belongs “binds”.
In the case of “pointed end complex, site 3 mutant (from UniProt Q9NZ32 1-417; Q9UJW0-1 1-460; Q9BTE1 1-182; O00399 1-190)”, the binding result in experiment [2] was “binds”.
Consider p25 (human) (from UniProt Q9BTE1 1-182), for which the binding result in experiment [1] is reported as “binds”.
Regarding “p25 (human), site 4 mutant (from UniProt Q9BTE1 1-182)”, the binding entry in experiment [1] was “binds”.
